# Results as given in patent publication US20240082424A1, “CLATHRATE IN WHICH EQUOL IS INCLUDED IN CYCLODEXTRIN, EQUOL-ABSORBENT COMPOSITION CONTAINING SAID CLATHRATE, AND PRODUCTION METHOD THEREFOR” (DAICEL CORPORATION, priority 2020, published 2024).
# The name of at least one read-out is uncertain.
# Test: Pharmacokinetics (PK) analysis by oral administration in rats
# Format: in vivo, Crl:CD (SD) rats
# Conditions: single oral dose, rat plasma, 0.5% CMC suspension; equol clathrate 100 mg/kg, equol 6.3 mg/kg
# Description: The equol clathrate A-1 prepared in <<Preparation of Equol Clathrate>> was subjected to pharmacokinetics (PK) analysis using 6-week-old Crl:CD (SD) rats by oral administration. As a control, pharmacokinetics (PK) analysis of equol (available from LC Laboratories) alone was also performed.
# Specifically, the administered dose of the equol clathrate A-1 was 100 mg/kg, whereas the dose of equol (available from LC Laboratories) was 6.3 mg/kg, an amount considered to be equivalent to 100 mg/kg of the equol clathrate A-1.
# The administered dose of the equol clathrate A-1 and the administered dose of equol were each administered as a single oral dose to 3 animals/group. The test substance used for the administration sample was suspended in 0.5% CMC aqueous solution, and the administered volume was 10 mL/kg.
# PK was measured using plasma, and blood was collected at 0 min, 30 min, 1 h, 2 h, 6 h, 12 h, and 24 h. After 24 hours of blood collection, the rats were euthanized.
# Note that, in Table 2, “Cmax” means maximum blood concentration, “Tmax” means time to reach Cmax, and “AUC0-24” means area.
smiles,measurement,value
Oc1ccc([C@H]2COc3cc(O)ccc3C2)cc1 [equol],Tmax (time to reach Cmax),30 min
